Laboratory results from PubChem BioAssay AID256 (DTP/NCI, 2004).
The list shows only some results of the screen, not a fair sample: it is rich in T/C values a quarter to a half above the control, in often repeated tests (any T/C) and in doses without a T/C. Other doses and runs of a compound stand elsewhere. T/C gives the treated animals as a percentage of the vehicle group. Some doses have a count of surviving animals in place of a T/C: the source holds a T/C of zero for them, seemingly a mark for toxic or unscored doses. Some doses without a T/C left all or most animals alive at the check, yet need not have been tolerated: the source hardly ever lists a survival T/C far under the control, and the zero likely stands for such cases as well. Counts of survivors are from the toxicity check (mostly the fifth day) where no day follows; animals may have died later. Schedule codes are those of the source, read here as Q, the interval in days (D) or hours (H), X, the number of doses. Some entries were tested several times; the values are given in rising order. Some schedule codes hold Z or #, which are not explained here. Some structures stand for samples that the source files as different forms (salt, stereo form or complex); doses refer to the form tested. Where survival is the endpoint, the PubChem record calls one and a half times the control and up active, and a quarter to a half above the control has no call in these data; cut-offs in other NCI protocols can differ. Signs of the kind (2×) say how often a value occurs here. Some T/C values are followed by the survivors on the day toxicity was checked, most often the fifth; where none is given, no animal had died by that day.

System: CD2F1 mice, L1210 leukemia ip, survival T/C
Test: NCI In Vivo Anticancer Drug Screen. Data for tumor model L1210 Leukemia (intraperitoneal) in CD2F1 (CDF1) mice
Conditions: higher T/C = longer survival
Procedure, shortened: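 Activity against a transplanted murine tumor was judged by comparing the compound group with a vehicle group. The outcome in the treated animals was divided by that in the controls.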

[1] = T/C endpoint: mean survival time, dose: 200.0 mg/kg/injection, schedule: Q04DX003 (ip), vehicle: saline
[2] = T/C endpoint: mean survival time, dose: 400.0 mg/kg/injection, schedule: Q04DX003 (ip), vehicle: saline
[3] = T/C endpoint: mean survival time, dose: 100.0 mg/kg/injection, schedule: Q01DX009 (ip), vehicle: saline with Tween-80
[4] = T/C endpoint: mean survival time, dose: 200.0 mg/kg/injection, schedule: Q04DX003 (ip), vehicle: saline with Tween-80
[5] = T/C endpoint: mean survival time, dose: 400.0 mg/kg/injection, schedule: Q01DX009 (ip), vehicle: saline with Tween-80
[6] = T/C endpoint: mean survival time, dose: 400.0 mg/kg/injection, schedule: Q04DX003 (ip), vehicle: saline with Tween-80
[7] = T/C endpoint: mean survival time, dose: 200.0 mg/kg/injection, schedule: Q01DX001 (ip), vehicle: saline with Tween-80
[8] = T/C endpoint: mean survival time, dose: 100.0 mg/kg/injection, schedule: Q01DX001 (ip), vehicle: saline with Tween-80
[9] = T/C endpoint: mean survival time, dose: 100.0 mg/kg/injection, schedule: Q04DX003 (ip), vehicle: saline with Tween-80
[10] = T/C endpoint: mean survival time, dose: 400.0 mg/kg/injection, schedule: Q01DX001 (ip), vehicle: saline with Tween-80

CC(=O)Nc1ccn(C2OC(CO)C(O)C2O)c(=O)n1 (stereo not given)
T/C (T/C endpoint: mean survival time, dose: 6.25 mg/kg/injection, schedule: Q03HX024 (ip), vehicle: saline): 138 % of control | T/C (T/C endpoint: mean survival time, dose: 18.8 mg/kg/injection, schedule: Q01DX008 (ip), vehicle: saline): 129 % of control | T/C [1]: 126 % of control | T/C [2]: 126 % of control

CCOc1ccc(-n2c(-c3ccc(Br)cc3)csc2=NC(=O)c2ccccc2F)cc1
survivor count (T/C endpoint: mean survival time, dose: 50.0 mg/kg/injection, schedule: Q01DX009 (ip), vehicle: saline with Tween-80): 3 of 3 | T/C [3]: 87 (2×) and 90 % of control | survivor count [3]: 6 of 6 | survivor count [4]: 6 of 6 | survivor count [5]: 4 of 6 | survivor count [6]: 6 of 6

OC(c1ccccc1)(c1ccccc1)c1cc2ccccc2[nH]1
survivor count [7]: 5 of 6

CC(=O)NC1=C(N2CC2)C(=O)C(NC(C)=O)=C(N2CC2)C1=O
T/C (T/C endpoint: mean survival time, dose: 0.25 mg/kg/injection, schedule: Q01DX009 (ip), vehicle: saline): 129 and 146 % of control | T/C (T/C endpoint: mean survival time, dose: 1.0 mg/kg/injection, schedule: Q04DX003 (ip), vehicle: saline): 147 % of control | survivor count (T/C endpoint: mean survival time, dose: 4.0 mg/kg/injection, schedule: Q01DX007 (ip), vehicle: saline): 6 of 6 | survivor count (T/C endpoint: mean survival time, dose: 4.0 mg/kg/injection, schedule: Q01DX009 (ip), vehicle: saline): 6 of 6

C=C(Br)CNC(=O)CCC
survivor count (T/C endpoint: mean survival time, dose: 100.0 mg/kg/injection, schedule: Q04DX003 (ip), vehicle: saline): 0 of 6 | survivor count [1]: 0 of 6 | survivor count [2]: 0 of 6

C1CCC(NC2CCCCC2)CC1
survivor count [8]: 0 of 6

O=[N+]([O-])c1ccc2ccccc2c1-c1c([N+](=O)[O-])ccc2ccccc12
survivor count [6]: 6 of 6

CN(Cc1cnc2nc(N)nc(N)c2n1)c1c(Cl)cc(C(=O)NC(CCC(=O)O)C(=O)O)cc1Cl (stereo not given)
T/C (T/C endpoint: mean survival time, dose: 200.0 mg/kg/injection, schedule: Q01DX009 (ip), vehicle: sodium bicarbonate): 127 % of control | T/C (T/C endpoint: median survival time, dose: 100.0 mg/kg/injection, schedule: Q01DX009 (ip), vehicle: sodium bicarbonate): 140 % of control

OCP(CO)CO.[Cl][Hg][Cl]
survivor count (T/C endpoint: mean survival time, dose: 50.0 mg/kg/injection, schedule: Q04DX003 (ip), vehicle: saline): 1 of 6

COc1ccc(C2N(C)CCCN2C)c(OC)c1
survivor count [9]: 1 of 6 | survivor count [4]: 0 of 6 | survivor count [6]: 0 of 6

Cc1cn(C(C=O)OC(C=O)CO)c(=O)[nH]c1=O (stereo not given)
T/C (T/C endpoint: mean survival time, dose: 80.0 mg/kg/injection, schedule: Q01DX005 (ip), vehicle: water): 133 % of control | survivor count (T/C endpoint: mean survival time, dose: 160.0 mg/kg/injection, schedule: Q01DX005 (ip), vehicle: water): 4 of 6

O=[N+]([O-])c1ccc2c(c1)-c1[nH]c3ccccc3c1CS2
survivor count (T/C endpoint: mean survival time, dose: 400.0 mg/kg/injection, schedule: Q01DX009 (ip), vehicle: Klucel (hydroxypropylcellulose) (HPC)): 2 of 6

CSc1ccnc2ccccc12
survivor count (T/C endpoint: mean survival time, dose: 100.0 mg/kg/injection, schedule: Q01DX009 (ip), vehicle: other): 3 of 6 | survivor count (T/C endpoint: mean survival time, dose: 200.0 mg/kg/injection, schedule: Q01DX009 (ip), vehicle: other): 5 of 6

COC1CC2C(C[CH]1[Hg][Cl])C2(Cl)Cl (stereo not given)
survivor count [9]: 0 of 6 | survivor count [4]: 0 of 6 | survivor count [6]: 0 of 6

CCCN1COC(OCC)C(C)(C)C1 (stereo not given)
survivor count [5]: 1 of 6 | survivor count (T/C endpoint: mean survival time, dose: 400.0 mg/kg/injection, schedule: Q01DX009 (ip), vehicle: saline): 3 of 6

COc1cccc2c1C(=O)c1c(O)c3c(c(O)c1C2=O)C[C@@](O)(C(=O)CO)C[C@@H]3OC1CC(OC(C)=O)C(OC(C)=O)C(C)O1 (stereo not given in full)
T/C (T/C endpoint: mean survival time, dose: 3.12 mg/kg/injection, schedule: Q01DX009 (ip), vehicle: distilled water + Tween-80): 129 and 131 % of control | T/C (T/C endpoint: mean survival time, dose: 6.25 mg/kg/injection, schedule: Q01DX009 (ip), vehicle: distilled water + Tween-80): 147 and 148 % of control | T/C (T/C endpoint: mean survival time, dose: 12.5 mg/kg/injection, schedule: Q01DX009 (ip), vehicle: distilled water + Tween-80): 133 % of control | survivor count (T/C endpoint: mean survival time, dose: 25.0 mg/kg/injection, schedule: Q01DX009 (ip), vehicle: distilled water + Tween-80): 10 of 10 | survivor count (T/C endpoint: mean survival time, dose: 50.0 mg/kg/injection, schedule: Q01DX009 (ip), vehicle: distilled water + Tween-80): 9 of 10 and 6 of 6 | survivor count (T/C endpoint: mean survival time, dose: 100.0 mg/kg/injection, schedule: Q01DX009 (ip), vehicle: distilled water + Tween-80): 10 of 10 and 6 of 6 | T/C (T/C endpoint: median survival time, dose: 1.57 mg/kg/injection, schedule: Q01DX009 (ip), vehicle: distilled water + Tween-80): 125 % of control | T/C (T/C endpoint: median survival time, dose: 3.12 mg/kg/injection, schedule: Q01DX009 (ip), vehicle: distilled water + Tween-80): 137 % of control [9 of 10 alive] | T/C (T/C endpoint: median survival time, dose: 3.13 mg/kg/injection, schedule: Q01DX009 (ip), vehicle: distilled water + Tween-80): 133 % of control

CCCCCCCCCCCCCCCCCC[N+](C)(C)C (tested in a mixture with another compound)
survivor count (T/C endpoint: mean survival time, dose: 50.0 mg/kg/injection, schedule: Q04DX003 (ip), vehicle: saline with Tween-80): 0 of 6 | survivor count [9]: 0 of 6 | survivor count [4]: 0 of 6

CCC1(CC)C=CCC/C1=N\NS(=O)(=O)c1ccc(C)cc1
survivor count [6]: 6 of 6

O=C(NC/C=C/Br)Nc1cccc2c1CCCC2
survivor count [10]: 6 of 6

COC(=O)C[As+](c1ccccc1)(c1ccccc1)c1ccccc1
survivor count (T/C endpoint: mean survival time, dose: 300.0 mg/kg/injection, schedule: Q01DX001 (ip), vehicle: other): 0 of 6 | survivor count (T/C endpoint: mean survival time, dose: 300.0 mg/kg/injection, schedule: Q01DX001 (ip), vehicle: saline): 0 of 6

Nc1ccc(OC(=O)Oc2ccc(N)cc2)cc1
survivor count (T/C endpoint: mean survival time, dose: 9.38 mg/kg/injection, schedule: Q06HX068 (ip), vehicle: other): 2 of 10 | survivor count (T/C endpoint: mean survival time, dose: 37.5 mg/kg/injection, schedule: Q06HX068 (ip), vehicle: other): 5 of 10 | T/C (T/C endpoint: mean survival time, dose: 75.0 mg/kg/injection, schedule: Q01DX017 (ip), vehicle: other): 131 % of control [8 of 10 alive] | survivor count (T/C endpoint: mean survival time, dose: 75.0 mg/kg/injection, schedule: Q06HX068 (ip), vehicle: other): 6 of 10 | T/C (T/C endpoint: mean survival time, dose: 75.0 mg/kg/injection, schedule: Q#A X034 (ip), vehicle: other): 137 % of control | T/C (T/C endpoint: mean survival time, dose: 150.0 mg/kg/injection, schedule: Q01DX005 (ip), vehicle: other): 125 % of control | survivor count (T/C endpoint: mean survival time, dose: 300.0 mg/kg/injection, schedule: Q01DX005 (ip), vehicle: other): 6 of 10 | survivor count (T/C endpoint: mean survival time, dose: 300.0 mg/kg/injection, schedule: Q01DX017 (ip), vehicle: other): 5 of 10 | survivor count (T/C endpoint: mean survival time, dose: 300.0 mg/kg/injection, schedule: Q#A X034 (ip), vehicle: other): 3 of 10 | survivor count (T/C endpoint: mean survival time, dose: 600.0 mg/kg/injection, schedule: Q01DX001 (ip), vehicle: other): 4 of 10 | survivor count (T/C endpoint: mean survival time, dose: 600.0 mg/kg/injection, schedule: Q01DX005 (ip), vehicle: other): 0 of 10

CC(=O)Nc1cc2c3c(c1)CCN3CCC2
survivor count (T/C endpoint: mean survival time, dose: 50.0 mg/kg/injection, schedule: Q01DX001 (ip), vehicle: saline with Tween-80): 0 of 6 | survivor count [8]: 0 of 6 | survivor count [7]: 0 of 6 | survivor count [10]: 0 of 6

Cc1ccc(C2=CSC3=NCCN23)cc1Cl
survivor count (T/C endpoint: median survival time, dose: 100.0 mg/kg/injection, schedule: Q01DX005 (ip), vehicle: saline): 0 of 6

N=C(N)c1ccc(N=NNc2ccc(C(=N)N)cc2)cc1
survivor count (T/C endpoint: median survival time, dose: 50.0 mg/kg/injection, schedule: Q01DX009 (ip), vehicle: saline with Tween-80): 5 of 6 | survivor count (T/C endpoint: median survival time, dose: 100.0 mg/kg/injection, schedule: Q01DX009 (ip), vehicle: saline with Tween-80): 0 of 6 | survivor count (T/C endpoint: median survival time, dose: 200.0 mg/kg/injection, schedule: Q01DX009 (ip), vehicle: saline with Tween-80): 0 of 6

CCOc1ccccc1OC(=O)Nc1ccc(OC)cc1
survivor count (T/C endpoint: mean survival time, dose: 200.0 mg/kg/injection, schedule: Q04DX002 (ip), vehicle: saline with Tween-80): 3 of 3

Cc1ccc(S(=O)(=O)/C=C(\Cl)S(=O)(=O)C(C)(C)C)cc1
survivor count [8]: 0 of 3 and 2 of 3 | survivor count [7]: 0 of 3 | survivor count [10]: 0 of 3
